Laboratory results reported in article PMC11148080, “Ru(II)-based complexes containing 2-thiouracil derivatives suppress liver cancer stem cells by targeting NF-κB and Akt/mTOR signaling” (Cell Death Discovery, 2024).

Experiments:
Assay in all cases: Alamar Blue cytotoxicity
B16-F10 = format: cell-based, mouse
Method: (§1) The Alamar Blue assay was used to measure cell viability, as previously described. Adherent cells were seeded in 96-well plates at a density of 7 × 10^3 cells per well, and suspended cells were seeded at 3 × 10^4 cells per well. Drugs were added to each well after overnight incubation for adherent cells or immediately after seeding for suspension cells, and incubation continued for an additional 72 h. The positive control included doxorubicin (Laboratorio IMA S.A.I.C., Buenos Aires, Argentina). Four hours (for cell lines) or 24 h (for primary cultures) before the end of incubation, 20 μL of resazurin (30 μM) (Sigma‒Aldrich Co. St. Louis, MO, USA) was added to each well. The absorbance at 570 and 600 nm was measured using a SpectraMax 190 microplate reader (Molecular Devices, Sunnyvale, CA, USA).

4T1 = format: cell-based, mouse
Method: as §1

K-562 = format: cell-based, human
Method: as §1

DU 145 = format: cell-based, human
Method: as §1

SCC4 = format: cell-based, human
Method: as §1

A549 = format: cell-based, human
Method: as §1

Jurkat = format: cell-based, human
Method: as §1

SCC-9 = format: cell-based, human
Method: as §1

OVCAR-3 = format: cell-based, human
Method: as §1

SCC-25 = format: cell-based, human
Method: as §1

U-87 MG = format: cell-based, human
Method: as §1

MDA-MB-231 = format: cell-based, human
Method: as §1

THP-1 = format: cell-based, human
Method: as §1

HepG2 = format: cell-based, human
Method: as §1

KG-1a = format: cell-based, human
Method: as §1

PANC-1 = format: cell-based, human
Method: as §1

MCF-7 = format: cell-based, human
Method: as §1

HCT116 = format: cell-based, human
Method: as §1

A-375 = format: cell-based, human
Method: as §1

CAL 27 = format: cell-based, human
Method: as §1

NB4 = format: cell-based, human
Method: as §1

HSC-3 = format: cell-based, human
Method: as §1

HL-60 = format: cell-based, human
Method: as §1, with “The positive control included doxorubicin (Laboratorio IMA S.A.I.C., Buenos Aires, Argentina).” left out

In the case of `Cc1cc(=O)nc([S][Ru+])[nH]1.F[P-](F)(F)(F)(F)F.c1ccc(-c2ccccn2)nc1.c1ccc(P(c2ccccc2)c2ccccc2)cc1.c1ccc(P(c2ccccc2)c2ccccc2)cc1` [Complex 2, trans-[Ru(6m2TU)(PPh3)2(bipy)]PF6], the Selectivity index (B16-F10; IC50 BJ/IC50 B16-F10) is reported as 2.83, the Selectivity index (B16-F10; IC50 MRC-5/IC50 B16-F10) is reported as 5.53 and the Selectivity index (B16-F10; IC50 PBMC/IC50 B16-F10) is reported as 4.24. For the same molecule, the Selectivity index (4T1; IC50 MRC-5/IC50 4T1) was 3.37, the Selectivity index (4T1; IC50 PBMC/IC50 4T1) was 2.58 and the Selectivity index (K-562; IC50 BJ/IC50 K-562) was 1.01. It also gave a Selectivity index (K-562; IC50 MRC-5/IC50 K-562) of 1.98, a Selectivity index (K-562; IC50 PBMC/IC50 K-562) of 1.52 and a Selectivity index (DU 145; IC50 BJ/IC50 DU 145) of 2.08. It also gave a Selectivity index (DU 145; IC50 MRC-5/IC50 DU 145) of 4.07, a Selectivity index (DU 145; IC50 PBMC/IC50 DU 145) of 3.12 and a Selectivity index (SCC4; IC50 BJ/IC50 SCC4) of 2.24. The Selectivity index (SCC4; IC50 MRC-5/IC50 SCC4) was 4.37, the Selectivity index (SCC4; IC50 PBMC/IC50 SCC4) was 3.35 and the Selectivity index (A549; IC50 BJ/IC50 A549) was 0.74. For the same molecule, the Selectivity index (A549; IC50 MRC-5/IC50 A549) was 1.46, the Selectivity index (A549; IC50 PBMC/IC50 A549) was 1.11 and the Selectivity index (Jurkat; IC50 BJ/IC50 Jurkat) was 1.58. It also gave a Selectivity index (Jurkat; IC50 MRC-5/IC50 Jurkat) of 3.08, a Selectivity index (Jurkat; IC50 PBMC/IC50 Jurkat) of 2.36 and a Selectivity index (SCC-9; IC50 BJ/IC50 SCC-9) of 3.07. It also gave a Selectivity index (SCC-9; IC50 MRC-5/IC50 SCC-9) of 5.99, a Selectivity index (SCC-9; IC50 PBMC/IC50 SCC-9) of 4.59 and a Selectivity index (OVCAR-3; IC50 BJ/IC50 OVCAR-3) of 4.81. For the same molecule, the Selectivity index (OVCAR-3; IC50 MRC-5/IC50 OVCAR-3) was 9.40, the Selectivity index (OVCAR-3; IC50 PBMC/IC50 OVCAR-3) was 7.20 and the Selectivity index (SCC-25; IC50 BJ/IC50 SCC-25) was 2.15. It also gave a Selectivity index (SCC-25; IC50 MRC-5/IC50 SCC-25) of 4.19, a Selectivity index (SCC-25; IC50 PBMC/IC50 SCC-25) of 3.21 and a Selectivity index (U-87 MG; IC50 BJ/IC50 U-87 MG) of 2.11. For the same molecule, the Selectivity index (U-87 MG; IC50 MRC-5/IC50 U-87 MG) was 4.12, the Selectivity index (U-87 MG; IC50 PBMC/IC50 U-87 MG) was 3.16 and the Selectivity index (MDA-MB-231; IC50 BJ/IC50 MDA-MB-231) was 2.64. The Selectivity index (MDA-MB-231; IC50 MRC-5/IC50 MDA-MB-231) was 5.16, the Selectivity index (MDA-MB-231; IC50 PBMC/IC50 MDA-MB-231) was 3.95 and the Selectivity index (THP-1; IC50 BJ/IC50 THP-1) was 1.20. The Selectivity index (THP-1; IC50 MRC-5/IC50 THP-1) was 2.35, the Selectivity index (THP-1; IC50 PBMC/IC50 THP-1) was 1.80 and the Selectivity index (HepG2; IC50 BJ/IC50 HepG2) was 2.46. It also gave a Selectivity index (HepG2; IC50 MRC-5/IC50 HepG2) of 4.80, a Selectivity index (HepG2; IC50 PBMC/IC50 HepG2) of 3.68 and a Selectivity index (KG-1a; IC50 BJ/IC50 KG-1a) of 2.07. For the same molecule, the Selectivity index (KG-1a; IC50 MRC-5/IC50 KG-1a) was 4.04, the Selectivity index (KG-1a; IC50 PBMC/IC50 KG-1a) was 3.09 and the Selectivity index (PANC-1; IC50 BJ/IC50 PANC-1) was 1.90. It also gave a Selectivity index (PANC-1; IC50 MRC-5/IC50 PANC-1) of 3.72, a Selectivity index (PANC-1; IC50 PBMC/IC50 PANC-1) of 2.85 and a Selectivity index (MCF-7; IC50 BJ/IC50 MCF-7) of 1.07. The Selectivity index (MCF-7; IC50 MRC-5/IC50 MCF-7) was 2.09, the Selectivity index (MCF-7; IC50 PBMC/IC50 MCF-7) was 1.60 and the Selectivity index (HCT116; IC50 MRC-5/IC50 HCT116) was 3.37. It also gave a Selectivity index (HCT116; IC50 PBMC/IC50 HCT116) of 2.58, a Selectivity index (A-375; IC50 BJ/IC50 A-375) of 3.90 and a Selectivity index (A-375; IC50 MRC-5/IC50 A-375) of 7.61. For the same molecule, the Selectivity index (A-375; IC50 PBMC/IC50 A-375) was 5.83, the Selectivity index (CAL 27; IC50 BJ/IC50 CAL 27) was 1.81 and the Selectivity index (CAL 27; IC50 MRC-5/IC50 CAL 27) was 3.53. For the same molecule, the Selectivity index (CAL 27; IC50 PBMC/IC50 CAL 27) was 2.71, the Selectivity index (NB4; IC50 BJ/IC50 NB4) was 1.48 and the Selectivity index (NB4; IC50 MRC-5/IC50 NB4) was 2.90. The Selectivity index (NB4; IC50 PBMC/IC50 NB4) was 2.22, the Selectivity index (HSC-3; IC50 BJ/IC50 HSC-3) was 1.40 and the Selectivity index (HSC-3; IC50 MRC-5/IC50 HSC-3) was 2.74. For the same molecule, the Selectivity index (HSC-3; IC50 PBMC/IC50 HSC-3) was 2.10, the Selectivity index (HL-60; IC50 BJ/IC50 HL-60) was 1.90 and the Selectivity index (HL-60; IC50 MRC-5/IC50 HL-60) was 3.70. It also gave a Selectivity index (HL-60; IC50 PBMC/IC50 HL-60) of 2.84.
